Experimental data from PubChem BioAssay AID1487 (National Center for Advancing Translational Sciences (NCATS), 2009).
The list shows a part of the results. These are further read-outs of the screen, such as a control signal, another cell line or another target. No call is given for them. Compounds called inactive in the main read-out are mostly missing here. Words in brackets tell the shape of the fitted curve; partial curves, single points and poor fits give uncertain potencies.

Test: qHTS Assay for Modulators of Lamin A Splicing
Settings: HeLa LMNA splicing GFP/RFP minigene ratio, 48 h
Outline: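 Read-out is the ratio of GFP to DsRed2 object intensity, acquired by 488 nm laser-scanning cytometry on HeLa lamin A-EGFP minigene reporter cells. Compound incubation 48 hrs at 37 °C in Opti-MEM with 2% FBS; DMSO 0.5% final.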

[1] = measured here: RFP viability control channel
[2] = measured here: GFP splicing reporter channel

SMILES	AC50 [1]	AC50 [2]
Cc1ccc2c(C)[nH]c(=O)cc2c1	20 µM [rising, single point]	
O=C(CSc1cccc[n+]1[O-])c1ccc(-c2ccccc2)cc1	35.5 µM [rising, partial curve]	
CCn1cnc2cc(NCc3cccs3)ccc21		3.55 µM [falling, full curve]
CC(=O)NO	0.794 µM [rising, single point]	35.5 µM [falling, single point]
COc1ccccc1C1CC(=O)Nc2cc3c(cc21)OCCO3 (centres undefined)	0.631 µM [rising, full curve, poor fit]	
CCOc1ccccc1/C=N/OCC(=O)NCc1ccc(F)cc1	0.0562 µM [falling, full curve]	0.178 µM [falling, full curve, poor fit]
CCN1C(=O)/C(=C2/Sc3ccc(OC)cc3N2C)SC1=Nc1cccc(O)c1	7.94 µM [falling, partial curve]	25.1 µM [falling, single point]
COc1cc(O)c2c(=O)c(O)c(-c3ccc(O)c(O)c3)oc2c1		12.6 µM [rising, partial curve]
CN(C)S(=O)(=O)c1ccc(C(=O)Nc2ccnn2C2CCCCC2)cc1	14.1 µM [rising, partial curve]	
COc1ccc(NC(=O)C2CCN(c3nc(C)nc4c3CCC4)CC2)cc1	11.2 µM [rising, partial curve, poor fit]	
Cc1nc(Cc2nnc(SCc3nc(N)nc(Nc4ccccc4C)n3)o2)cs1	2.51 µM [falling, partial curve, poor fit]	
COC(=O)CNC(=S)NC(=O)c1ccc(C(C)(C)C)cc1	0.447 µM [falling, full curve, poor fit]	0.501 µM [falling, full curve, poor fit]
COc1ccccc1CNC(=O)c1ccc2nc(-c3ccccc3)c(-c3ccccc3)nc2c1	17.8 µM [rising, partial curve, poor fit]	0.00501 µM [rising, full curve, poor fit]
COc1ccc(C(NC(=O)/C=C/c2ccco2)c2ccc(OC)c(OC)c2)cc1 (centres undefined)	0.631 µM [falling, partial curve, poor fit]	1.12 µM [falling, partial curve]
Cc1nn(C)c2c1c(C(F)(F)F)cc(=O)n2Cc1cccc(Br)c1	5.01 µM [falling, partial curve]	
O=C(Nc1ccc(OC(F)F)cc1)c1ncc(Cl)c(Cl)c1Cl	14.1 µM [rising, partial curve]	0.562 µM [rising, full curve, poor fit]
CC(/C=C/c1ccc2c(c1)OCO2)=N/NC(=O)C1COc2ccccc2O1 (centres undefined)	12.6 µM [rising, partial curve]	
O=C(/C=C/c1cccs1)NC(=S)NNC(=O)Cc1cccs1	28.2 µM [rising, single point]	
Cc1cccc(N2CCN(C3(c4ccccc4)C(=O)c4ccccc4C3=O)CC2)c1C	12.6 µM [rising, single point]	
Cc1ccc2onc(CC(=O)N(C)c3ccccc3)c2c1	0.0112 µM [rising, full curve, poor fit]	
O=S(=O)(Nc1ccc2nc(-c3cccc(Cl)c3)oc2c1)c1ccccc1	28.2 µM [falling, partial curve, poor fit]	35.5 µM [falling, single point]
CN(CC(=O)Nc1ccc(Cl)c(C(F)(F)F)c1)C(=O)/C=C/c1ccco1	22.4 µM [rising, single point]	17.8 µM [rising, single point]
CCOC(=O)C1CCCc2c1[nH]c1ccc(Cl)cc21 (centres undefined)	3.16 µM [falling, single point]	
O=S(=O)(Nc1nccs1)c1ccc(Cl)cc1	0.0501 µM [falling, full curve, poor fit]	
COc1cc(/C=N/n2c(-c3ccc4c(c3)NC(=O)CO4)csc2=Nc2cccc(C)c2)ccc1O	11.2 µM [rising, partial curve]	
O=C1NC(c2ccccn2)Nc2sc3c(c21)CCC3 (centres undefined)	12.6 µM [rising, partial curve]	
O=C(Cn1ccc(C(F)(F)F)n1)Nc1ccc(S(=O)(=O)NCc2ccco2)cc1		10 µM [rising, partial curve, poor fit]
O=C(c1ccccc1)c1cc(Cl)ccc1N1C(=O)C=CC1=O		35.5 µM [falling, single point]
CC(C)(C)N(NC(=O)OCc1ccccc1)C(=O)c1ccccc1		1 µM [rising, partial curve]
COC(=O)c1cn(-c2ccccc2)c(=O)c2ccccc12	0.2 µM [falling, full curve, poor fit]	

Taken from above (2 entries):
SMILES	AC50 [1]	AC50 [2]
CCN1C(=O)/C(=C2/Sc3ccc(OC)cc3N2C)SC1=Nc1cccc(O)c1	7.94 µM [falling, partial curve]	25.1 µM [falling, single point]
COc1cc(O)c2c(=O)c(O)c(-c3ccc(O)c(O)c3)oc2c1		12.6 µM [rising, partial curve]
